Measurements taken from article PMC10163288.
This is one part of the list.

B1: il10ra_site1_normal_mot_HHH_b2_00033_000000036_0001_41_54_H_._HHH_b1_00748_0001_0000400025_0000001_0 (protein)
chain: SSSSDAAELAAAASRLAIRLNNPELFQRLWELAKRIAEEGDPELREELEEIVEELERLISSSSSS
B2: il10ra_site1_normal_mot_HHH_b1_04704_af2_000000076_0001_43_57_H_._HHH_b2_03013_0001_0000100007_0000001_0_af2pred_0001 (protein)
chain: SSSSSSKREVIEEAIKILRKARKVEDPEEVRELLEEAERLAEEANNILLKIQVEFAKRRLSSSSS
B3: il10ra_site1_normal_mot_HHH_b1_02062_000000185_0001_1_20_H_._HHH_b1_04705_0001_0000300019_0000002_0 (protein)
chain: SSSSDLLERVYELSREAAELHSDGNPEEAERVLEEARELAEELGNELLRVQLEFLERLLENSSSS
B4: il10ra_site1_sap_14_mot_HHH_b2_01732_000000184_0001_19_35_H_._0bd37feb6572f9efcaa6698804f79080_0001_af2_0001_0000100004_0000002_0_0001 (protein)
chain: SSSSSREEVWELIRKALEALANGDPERAEELLEEARQLAEELNSPLFRFAVEHLLRAVEESSSSS
B5: il10ra_site1_sap_22_mot_HHH_b1_02641_af2_000000230_0001_39_52_H_._HHH_b1_07066_0001_0000600036_0000002_0_0001 (protein)
chain: SSSSDVHEEVRRAIEEAIRLFREGNPEEAEKVLEEAAERLEERNNQLAVRSIRYLLEILKSSSSS
B6: il10ra_site1_normal_mot_HHH_b2_08265_af2_000000206_0001_22_38_H_._HHH_b2_01362_0001_0000200008_0000001_0_1_af2pred_dldesign_0_af2pred (protein)
chain: SSSSSPKQKEIERLKAELEALLKAKDYKKIVETLKRLVEVAAEEDDQEALQFAYEVNKKLSSSSS
B7: il10ra_site1_normal_mot_HHH_b1_02997_000000220_0001_39_52_H_._HHH_b2_07229_0001_0000100008_0000001_0_af2pred_0001 (protein)
chain: SSSSSEEAREAIELLREAVELLAEGNPEEARELVEEALELAREAGDPELEIIAEFLLRNLSSSSS
B8: il10ra_site1_sap_21_mot_HHH_b1_05329_000000008_0001_43_56_H_._HHH_b2_08235_0001_0000300018_0000002_0_0001_af2pred_0001 (protein)
chain: SSSSSRAEEHAEFLIRAAEELLELGNPEAARLALRDALRTARDGNNEELAEEIEKLIEEVESSSS
B9: il10ra_site1_normal_mot_ems_3hC_416_0001_000000048_0001_1_19_H_._HHH_b1_01643_af2_0001_0000100001_0000001_1 (protein)
chain: SSSSSEENQEALELSREAFRLLLRGNEEEAKELLEEALELAKKGGNPRLARIIEELLKALNSSSS
B10: il10ra_site1_normal_mot_HHH_b2_07144_000000289_0001_1_18_H_._HHH_b1_07199_0001_0000100012_0000001_0 (protein)
chain: SSSSNEENEELYELSRRLAELIRRGNEEEARRLLEEAKELAEEANNFIARFVLRLLEEELSSSSS
B11: il10ra_site1_normal_mot_5fda0655e6834f3f331eaa9f580e88ed_0001_af2_000000239_0001_36_50_H_._a6da520ff4a02840130205282d0b8d49_0001_0001_0000100004_0000001_0_af2pr … (protein)
chain: SREYRILDAAIEAAGGDEERVEQLLEAYLEISKDPVVASVLKKLREAKAKGIPAKELLEELKAEN
B12: il10ra_site1_sap_11_mot_e1dd4851c59bc1cdde016f988f6856bd_0001_1_000000200_0001_16_31_H_._HEEHE_0643_0001_0000200004_0000002_0_0001 (protein)
chain: SSSSDEEEEESEELLKELEKLLREGDQERFIKLAAEIVRFAYEVNDEELLQAVWRLVEEFASSSS
B13: il10ra_site1_normal_mot_HHH_b1_03314_af2_000000278_0001_42_55_H_._HHH_b1_08766_0001_0000100003_0000002_0 (protein)
chain: SSSSSSSNVQFLARQAVRVIRLLNNEELLREAEELLEELEEKNDPRLLTRIHELAQEAYSSSSSS
B14: il10ra_site1_normal_mot_HHH_b1_04940_000000219_0001_1_18_H_._HHH_b2_00218_0001_0000100003_0000001_0 (protein)
chain: SSSSSEEERYLELAVRFLEQLLEQGDEEAARSMLRVVKDLAERLGDEEIKEELEEIEKELSSSSS
B15: il10ra_site1_normal_mot_HHH_b2_03220_af2_000000223_0001_23_40_H_._HHH_b1_05342_0001_0000500033_0000002_0_af2pred_0001 (protein)
chain: SSSSSSDHREVIRLLREALEIDDPEEARELVEEALELAQEAGNEELALIAEFLLRALSSSSSSSS
B16: il10ra_site1_normal_mot_HHH_b1_07219_af2_000000236_0001_1_17_H_._HHH_b1_02823_0001_0000200019_0000001_0 (protein)
chain: SSSDLEEKVKEILEELEELLERGDTEEALHLVWRALKEVAERGNKELFRLLRKVAQEILQLSSSS
B17: il10ra_site1_sap_17_mot_HHH_b1_08742_000000038_0001_1_20_H_._HHH_b1_03475_0001_0000200017_0000001_0_0001 (protein)
chain: SSSSSQEEQHARAVLWFARAALRDGDPHAAKYMLEYAAKLAEELGDEELLEEIERLLEEVNSSSS
B18: il10ra_site1_sap_21_mot_39a7b8d0c4c3fc04bafbda6ce6101d3a_0001_1_af2_000000014_0001_34_48_H_._HHH_b2_05481_0001_0000300014_0000002_0_0001 (protein)
chain: SSSSNEREAVEEVWELIRRALHIDDKEEAQEVVEEALELAEEINSRVMRQVIRWWLKELGSSSSS
B19: il10ra_site1_sap_24_mot_HHH_b2_06979_000000158_0001_42_57_H_._HHH_b1_01541_af2_0001_0000300025_0000002_0_0001_af2pred_dldesign_0_af2pred (protein)
chain: SSSDPEREALERALRYARWLLEQGAPELARRTLENALEWAERAGDPEFVKEIRAELARVEESSSS
B20: il10ra_site1_sap_19_mot_HHH_b1_03333_000000091_0001_1_17_H_._HHH_b2_06582_af2_0001_0000400013_0000001_0_0001 (protein)
chain: SSSSSAEYLVKQALKAAKRLAEQGDPEEAEKALRIAEHLAEEANDPELQRLVEEVQEEIRNSSSS
B21: il10ra_site1_sap_21_mot_HHH_b1_06804_000000054_0001_40_54_H_._HHH_b2_06339_0001_0000400038_0000001_1_0001 (protein)
chain: SSSSSDEHEEEVKELLEEAKEIDDEHERAQVLFEALRIAYEAQDKELLREVDEVAIKLYWSSSSS
B22: il10ra_site1_normal_mot_1f0bf248c09923a0581b66a675a8b92c_0001_af2_000000188_0001_52_65_H_._a6da520ff4a02840130205282d0b8d49_0001_0001_0000400022_0000001_1_af2pr … (protein)
chain: SDEVIALEAAIKAAGGDPRQVELILEAALRLLGDPAVEKVLRLLREALERGIPPEELLEELREEG
B23: il10ra_site1_sap_16_mot_HHH_b2_06857_af2_000000179_0001_42_54_H_._HHH_b1_08410_0001_0000100001_0000003_0_0001 (protein)
chain: SSSSSDAERQVRILLWAAKRIEDPHLRRVVLRLARENAEWQNDPEAEKLVEEVEEELEEKSSSSS
B24: il10ra_site1_sap_13_mot_HHH_b1_03273_000000263_0001_1_14_H_._HHH_b2_04095_af2_0001_0000200015_0000001_0_0001_af2pred_0001 (protein)
chain: SSSSDEEEFQERVEELLEEAKKISDRHEVTYLMIRAFALANQANDPELEKLVKEVAQELSSSSSS

Biological target: il10ra, Q13651
Test: yeast display titration

Apparent Kd, inactive:
B1 no binding seen
B2 no binding seen
B3 no binding seen
B4 no binding seen
B5 no binding seen
B6 no binding seen
B7 no binding seen
B8 no binding seen
B9 no binding seen
B10 no binding seen
B11 no binding seen
B12 no binding seen
B13 no binding seen
B14 no binding seen
B15 no binding seen
B16 no binding seen
B17 no binding seen
B18 no binding seen
B19 no binding seen
B20 no binding seen
B21 no binding seen
B22 no binding seen
B23 no binding seen
B24 no binding seen

Already shown: entries from further up.
Apparent Kd, inactive:
B18 no binding seen
B19 no binding seen
B20 no binding seen
B21 no binding seen
B22 no binding seen
B23 no binding seen
B24 no binding seen
